Experimental data: PubChem BioAssay AID1259405 (NCATS, 2018)

Aim: 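Mouse-designed siRNAs used to find CHO productivity engineering targets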 (primary screen)
Cell system: Chinese hamster CHO-K1 ovary cells with stable secreted eGFP expression
Knock-down reagent: single siRNA against mouse genes, 0.8 pmol siRNA per well (2 µl of 400 nM stock)
Time to read-out: 3 days
Read-out: 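Percent of the per-plate non-targeting control median for intracellular GFP per well by laser scanning cytometry and for cell viability by ATP luminescence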
Direction: GFP, % of control: higher = more GFP per well, higher productivity; viability (ATP), % of control: higher = more viable cells (more ATP)
Active means: 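a knock-down is called active if GFP reaches 120% or more of non-targeting control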
Shown is one part, drawn at random, of about 50,000 reagents. Over the whole deposit, about 4,000 (8%) got an active call. 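Mouse siRNA library applied to hamster cells; one well for each siRNA.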 The numbers tell different reagents against one gene apart.

no.	gene symbol	reagent	GFP, % of control	viability (ATP), % of control	outcome
1	Ado (2-aminoethanethiol dioxygenase)	1	60.6	84.1	inactive
2	Ado (2-aminoethanethiol dioxygenase)	2	61.7	77	inactive
3	Ado (2-aminoethanethiol dioxygenase)	3	85.8	88.7	inactive
4	Rasgrp3 (RAS, guanyl releasing protein 3)	1	93.3	99	inactive
5	Rasgrp3 (RAS, guanyl releasing protein 3)	2	301	83.9	active
6	Rasgrp3 (RAS, guanyl releasing protein 3)	3	70.3	80.2	inactive
7	Or4a74 (olfactory receptor family 4 subfamily A member 74)	1	105	86.8	inactive
8	Or4a74 (olfactory receptor family 4 subfamily A member 74)	2	72.3	81.1	inactive
9	Or4a74 (olfactory receptor family 4 subfamily A member 74)	3	52	87	inactive
10	Guk1 (guanylate kinase 1)	1	58	71.9	inactive
11	Tlx3 (T cell leukemia, homeobox 3)	1	81.7	56.3	inactive
12	Tlx3 (T cell leukemia, homeobox 3)	2	72.3	79.3	inactive
13	Mterf1a (mitochondrial transcription termination factor 1a)	1	109	87.9	inactive
14	Mterf1a (mitochondrial transcription termination factor 1a)	2	77.6	79.7	inactive
15	Mterf1a (mitochondrial transcription termination factor 1a)	3	75.8	61.5	inactive
16	Mylk3 (myosin light chain kinase 3)	1	89	83	inactive
17	Scart2 (scavenger receptor family member expressed on T cells 2)	1	120	75	active
18	Scart2 (scavenger receptor family member expressed on T cells 2)	2	0	126	inactive
19	Scart2 (scavenger receptor family member expressed on T cells 2)	3	89.4	62.6	inactive
20	Ptger3 (prostaglandin E receptor 3 (subtype EP3))	1	160	107	active
21	Ptger3 (prostaglandin E receptor 3 (subtype EP3))	2	73.1	110	inactive
22	Ptger3 (prostaglandin E receptor 3 (subtype EP3))	3	43	60.1	inactive
23	Zbtb38 (zinc finger and BTB domain containing 38)	1	70	76.9	inactive
24	Zbtb38 (zinc finger and BTB domain containing 38)	2	90.8	72.1	inactive
25	Or5e1 (olfactory receptor family 5 subfamily E member 1)	1	83.5	46.5	inactive
26	Or5e1 (olfactory receptor family 5 subfamily E member 1)	2	78.2	97.9	inactive
27	Or5e1 (olfactory receptor family 5 subfamily E member 1)	3	104	112	inactive
28	Dcbld2 (discoidin, CUB and LCCL domain containing 2)	1	81.8	77	inactive
29	Dcbld2 (discoidin, CUB and LCCL domain containing 2)	2	89.8	65.7	inactive
30	Dcbld2 (discoidin, CUB and LCCL domain containing 2)	3	136	51.8	active
31	Gad1 (glutamate decarboxylase 1)	1	81.1	94.4	inactive
32	Gad1 (glutamate decarboxylase 1)	2	72.5	66.8	inactive
33	Gad1 (glutamate decarboxylase 1)	3	62	48.5	inactive
34	Anxa8 (annexin A8)	1	76.4	101	inactive
35	Anxa8 (annexin A8)	2	54	52.1	inactive
36	Anxa8 (annexin A8)	3	53.8	59.5	inactive
37	Clvs2 (clavesin 2)	1	117	66.5	inactive
38	Clvs2 (clavesin 2)	2	88.4	66.2	inactive
39	Clvs2 (clavesin 2)	3	72.4	81.4	inactive
40	Or4c123 (olfactory receptor family 4 subfamily C member 123)	1	98.3	72	inactive
41	Or4c123 (olfactory receptor family 4 subfamily C member 123)	2	158	59.6	active
42	Or4c123 (olfactory receptor family 4 subfamily C member 123)	3	39.1	87.6	inactive
43	Or13d1 (olfactory receptor family 13 subfamily D member 1)	1	80.1	68.9	inactive
44	Or13d1 (olfactory receptor family 13 subfamily D member 1)	2	80.5	78.9	inactive
45	Or13d1 (olfactory receptor family 13 subfamily D member 1)	3	58	81.2	inactive
46	Pamr1	1	130	76.6	active
47	Pamr1	2	23.1	31.9	inactive
48	Pamr1	3	78.4	73.3	inactive
49	Angptl4 (angiopoietin-like 4)	1	61.9	72.7	inactive
50	Angptl4 (angiopoietin-like 4)	2	38.2	61.9	inactive
51	Lrp1 (low density lipoprotein receptor-related protein 1)	1	101	109	inactive
52	Lrp1 (low density lipoprotein receptor-related protein 1)	2	69.9	55.5	inactive
53	Lrp1 (low density lipoprotein receptor-related protein 1)	3	37	63.9	inactive
54	Zcchc8 (zinc finger, CCHC domain containing 8)	1	61.6	73.9	inactive
55	Zcchc8 (zinc finger, CCHC domain containing 8)	2	95.1	85.9	inactive
56	Zcchc8 (zinc finger, CCHC domain containing 8)	3	88.2	99.2	inactive
57	Prokr1 (prokineticin receptor 1)	1	74	82	inactive
58	Prokr1 (prokineticin receptor 1)	2	62.6	72.5	inactive
59	Prokr1 (prokineticin receptor 1)	3	56.5	44.6	inactive
60	Pskh1 (protein serine kinase H1)	1	85.3	78.9	inactive
61	Or2v2 (olfactory receptor family 2 subfamily V member 2)	1	38.1	48.7	inactive
62	Or2v2 (olfactory receptor family 2 subfamily V member 2)	2	83	73.5	inactive
63	Or2v2 (olfactory receptor family 2 subfamily V member 2)	3	71.8	101	inactive
64	Actr1a (ARP1 actin-related protein 1A, centractin alpha)	1	72.4	45	inactive
65	Actr1a (ARP1 actin-related protein 1A, centractin alpha)	2	47.7	64.3	inactive
66	Cmtm2a (CKLF-like MARVEL transmembrane domain containing 2A)	1	66.3	60.2	inactive
67	Cmtm2a (CKLF-like MARVEL transmembrane domain containing 2A)	2	62.9	78.6	inactive
68	Cmtm2a (CKLF-like MARVEL transmembrane domain containing 2A)	3	102	118	inactive
69	Unc5a (unc-5 netrin receptor A)	1	55.7	56.8	inactive
70	Unc5a (unc-5 netrin receptor A)	2	92.4	47.7	inactive
71	Unc5a (unc-5 netrin receptor A)	3	67	126	inactive
72	Pcbp4 (poly(rC) binding protein 4)	1	66	38.3	inactive
73	Pcbp4 (poly(rC) binding protein 4)	2	44.3	28.7	inactive
74	Pcbp4 (poly(rC) binding protein 4)	3	50.2	56.4	inactive
75	Vps25 (vacuolar protein sorting 25)	1	79.6	69.2	inactive
76	Vps25 (vacuolar protein sorting 25)	2	134	52	active
77	Vps25 (vacuolar protein sorting 25)	3	101	124	inactive
78	Acad10 (acyl-Coenzyme A dehydrogenase family, member 10)	1	66.6	72.7	inactive
79	Acad10 (acyl-Coenzyme A dehydrogenase family, member 10)	2	101	107	inactive
80	Bgn (biglycan)	1	91.3	96.6	inactive
81	Bgn (biglycan)	2	82.6	82.1	inactive
82	Bgn (biglycan)	3	43.3	39	inactive
83	Asprv1 (aspartic peptidase, retroviral-like 1)	1	119	97.2	inactive
84	Asprv1 (aspartic peptidase, retroviral-like 1)	2	113	70	inactive
85	Asprv1 (aspartic peptidase, retroviral-like 1)	3	61.7	80.2	inactive
86	Zfp942 (zinc finger protein 942)	1	52.6	58.2	inactive
87	Zfp942 (zinc finger protein 942)	2	97.9	107	inactive
88	Zfp942 (zinc finger protein 942)	3	76.8	76.8	inactive
89	Pdia6 (protein disulfide isomerase associated 6)	1	93.7	117	inactive
90	Pdia6 (protein disulfide isomerase associated 6)	2	89.1	84.6	inactive
91	Pdia6 (protein disulfide isomerase associated 6)	3	35.7	61.9	inactive
92	Vwa7 (von Willebrand factor A domain containing 7)	1	88.3	112	inactive
93	Vwa7 (von Willebrand factor A domain containing 7)	2	88.3	88	inactive
94	Vwa7 (von Willebrand factor A domain containing 7)	3	69.5	87.6	inactive
95	Tacr3 (tachykinin receptor 3)	1	84.9	97	inactive
96	Tacr3 (tachykinin receptor 3)	2	66	78.4	inactive
97	Tacr3 (tachykinin receptor 3)	3	13.6	10.6	inactive
98	Ccng2 (cyclin G2)	1	92.9	103	inactive
99	Ccng2 (cyclin G2)	2	75.7	62.2	inactive
100	Or2d4 (olfactory receptor family 2 subfamily D member 4)	1	102	70.9	inactive
101	Or2d4 (olfactory receptor family 2 subfamily D member 4)	2	112	89	inactive
102	Or2d4 (olfactory receptor family 2 subfamily D member 4)	3	77.9	89.1	inactive
103	Rsrc2 (arginine/serine-rich coiled-coil 2)	1	72.1	62.2	inactive
104	Rsrc2 (arginine/serine-rich coiled-coil 2)	2	71.9	70	inactive
105	Rsrc2 (arginine/serine-rich coiled-coil 2)	3	85.2	82.8	inactive
106	Hnrnpl (heterogeneous nuclear ribonucleoprotein L)	1	59.3	57.1	inactive
107	Hnrnpl (heterogeneous nuclear ribonucleoprotein L)	2	52.8	40.2	inactive
108	Hnrnpl (heterogeneous nuclear ribonucleoprotein L)	3	100	50.4	inactive

Active calls (from the list above):
gene symbol	reagent	GFP, % of control	viability (ATP), % of control	outcome
Rasgrp3 (RAS, guanyl releasing protein 3)	2	301	83.9	active
Scart2 (scavenger receptor family member expressed on T cells 2)	1	120	75	active
Ptger3 (prostaglandin E receptor 3 (subtype EP3))	1	160	107	active
Dcbld2 (discoidin, CUB and LCCL domain containing 2)	3	136	51.8	active
Or4c123 (olfactory receptor family 4 subfamily C member 123)	2	158	59.6	active
Pamr1	1	130	76.6	active
Vps25 (vacuolar protein sorting 25)	2	134	52	active
